The other results are listed elsewhere or left out. Further columns of the screen follow, without active or inactive calls. Most of these compounds were active or inconclusive in the main read-out, so they are no random draw. The note in brackets gives the kind of curve behind each potency; many fits are weak.
Test: qHTS Assay for Modulators of Lamin A Splicing
Details: HeLa LMNA splicing GFP/RFP minigene ratio, 48 h
Method in brief: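 S3 HeLa stable clones carrying a lamin A-EGFP splicing minigene plus DsRed2 were seeded at 600 cells/well in Opti-MEM with 2% FBS, pin-dosed and incubated 48 h at 37°C. Acumen cytometry (488 nm) gave the GFP/RFP total-intensity ratio.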

[1] = measured here: GFP splicing reporter channel
[2] = measured here: RFP viability control channel

Structure (SMILES)	AC50 [1]	AC50 [2]
C=CCn1c(COc2ccccc2F)nnc1SCC(=O)c1c[nH]c2ccccc12	12.6 µM [rising, partial curve]	14.1 µM [rising, partial curve]
Cc1ccc(-c2csc3nc[nH]c(=S)c23)cc1C	20 µM [falling, partial curve, poor fit]	17.8 µM [falling, partial curve, poor fit]
O=C(O)c1ccc(/C=C/c2nc3sc4c(c3c(=O)[nH]2)CCC4)cc1	1.12 µM [rising, partial curve]	–
COc1ccc(NC(=O)/C(C#N)=C\c2ccc(N3CCOCC3)o2)cc1	35.5 µM [falling, single point]	25.1 µM [falling, partial curve, poor fit]
COc1ccc(C)cc1NC(=O)CSc1nnc(COc2ccc(Cl)cc2)n1Cc1ccco1	–	8.91 µM [rising, partial curve, poor fit]
O=S(=O)(/C=C/c1ccccc1)Nc1ccc2c(c1)OCO2	14.1 µM [rising, partial curve]	20 µM [rising, partial curve, poor fit]
Cc1sc2ncnc(N3CCCCC3C)c2c1C (centres undefined)	–	31.6 µM [rising, single point]
COC(=O)c1cc(=O)n(CCc2ccccc2)c(=Nc2ccc(F)cc2)s1	–	22.4 µM [rising, single point]
CC(=O)c1ccc(NC(=O)COC(=O)c2nc(Cl)ccc2Cl)cc1	–	35.5 µM [rising, single point]
Cc1c(C(=O)NCc2ccc(Cl)cc2)sc2nc3n(c(=O)c12)CCCCC3	0.00316 µM [falling, full curve]	–
CC(C)Oc1ccc(C(=O)NC2=NCCS2)cc1	35.5 µM [rising, partial curve, poor fit]	–
CCSc1nnc(-c2ccc(S(=O)(=O)NCc3cccs3)cc2)o1	17.8 µM [rising, single point]	35.5 µM [rising, single point]
COc1ccc(NC(=S)Nc2cccc3cnccc23)cc1	–	1 µM [rising, partial curve, poor fit]
Clc1ccc2oc3c(Cl)ncnc3c2c1	–	35.5 µM [rising, single point]
O=C(CN1C(=O)c2ccccc2S1(=O)=O)Nc1ccccc1	0.0141 µM [rising, full curve, poor fit]	–
Cc1ccc(S(=O)(=O)N2CCN(C)CC2)c(C)c1N(C)S(=O)(=O)c1ccc(Cl)cc1	–	15.8 µM [rising, single point]
Cc1cccc(C(=O)N2CCc3cc(CNC(=O)COc4ccc(Cl)cc4)ccc32)c1	–	7.94 µM [rising, partial curve]
O=c1[nH]c(CSc2nnnn2-c2ccc(Cl)cc2)nc2ccccc12	–	0.00447 µM [falling, full curve, poor fit]
N#Cc1c(C#N)c(-c2ccccc2)n(-c2ccccc2)c1N	8.91 µM [rising, partial curve]	11.2 µM [rising, partial curve]

Structure (SMILES)	AC50 [1]	AC50 [2]
Cc1nnc(N)nc1C	0.708 µM [falling, full curve, poor fit]	0.631 µM [falling, full curve]
Cc1ccc(OCc2nc(C#N)c(N3CCN(Cc4ccccc4)CC3)o2)cc1	–	17.8 µM [rising, partial curve]
CCN(CC)S(=O)(=O)c1ccc2oc(Nc3ccc4c(c3)OCCO4)nc2c1	–	0.794 µM [rising, partial curve]
Cc1cccc(NC(=O)c2cn(-c3ccccc3)nc2-c2ccccc2)c1	–	0.00447 µM [rising, full curve, poor fit]
O=C(CCCN1C(=O)/C(=C/c2cccs2)SC1=S)NNC(=O)c1ccccc1O	–	11.2 µM [rising, partial curve, poor fit]
COc1cc2c(cc1OC)-c1nnc(C)n1C(C)(C)C2	–	2.82 µM [falling, full curve, poor fit]
O=C1CN(C(=O)CSc2nnnn2-c2ccc(Cl)cc2)c2ccccc2N1	35.5 µM [rising, single point]	35.5 µM [rising, single point]
C=CCOc1c(Br)cc(/C=N/O)cc1OCC	–	31.6 µM [rising, single point]
COC(=O)/C(=N/Nc1ccc(C)cc1)N1CCCc2ccccc21	–	15.8 µM [rising, partial curve]
Cc1ccc(-n2c(SCC(=O)N/N=C/c3c(C)nn(-c4ccccc4)c3C)nc3ccccc3c2=O)cc1	–	3.98 µM [rising, full curve]
O=C(Nc1ccccc1N1CCOCC1)C1(c2ccc(Cl)cc2)CCC1	–	0.00447 µM [rising, full curve, poor fit]
O=C(Nc1ccc(Cl)cc1)Nc1nnc(CSCc2ccc(Cl)cc2)s1	3.98 µM [rising, single point]	3.98 µM [rising, partial curve]
COC(=O)c1c(C)oc2ccc(N(C(=O)c3ccncc3)S(=O)(=O)c3ccc(C)cc3C)cc12	–	3.16 µM [rising, partial curve]
CCOC(=O)c1[nH]c(C)c(CCC(=O)NCc2ccccc2)c1C	28.2 µM [rising, single point]	35.5 µM [rising, single point]
O=C(Sc1cccc2cccnc12)c1ccc(F)cc1	12.6 µM [falling, partial curve]	35.5 µM [falling, single point]
O=C(O)[C@@H]1C[C@@H](C(=O)O)N1	–	5.62 µM [falling, single point]
CC(=O)Nc1cccc(NC(=O)Nc2cccc(Cl)c2C)c1	5.62 µM [falling, single point]	6.31 µM [falling, single point]
Clc1ccc(N/N=C/c2cccnc2)cc1	–	35.5 µM [rising, single point]

Entries above that have a thiophene ring, fused or not (6):
Structure (SMILES)	AC50 [1]	AC50 [2]
Cc1ccc(-c2csc3nc[nH]c(=S)c23)cc1C	20 µM [falling, partial curve, poor fit]	17.8 µM [falling, partial curve, poor fit]
O=C(O)c1ccc(/C=C/c2nc3sc4c(c3c(=O)[nH]2)CCC4)cc1	1.12 µM [rising, partial curve]	–
Cc1sc2ncnc(N3CCCCC3C)c2c1C (centres undefined)	–	31.6 µM [rising, single point]
Cc1c(C(=O)NCc2ccc(Cl)cc2)sc2nc3n(c(=O)c12)CCCCC3	0.00316 µM [falling, full curve]	–
CCSc1nnc(-c2ccc(S(=O)(=O)NCc3cccs3)cc2)o1	17.8 µM [rising, single point]	35.5 µM [rising, single point]
O=C(CCCN1C(=O)/C(=C/c2cccs2)SC1=S)NNC(=O)c1ccccc1O	–	11.2 µM [rising, partial curve, poor fit]
